Measured values: patent publication EP4480961A1
Results are given in words; binding and its absence hold for the method and conditions named. One block for each binder: values may come before it.

How the values were obtained:
transferrin = experiment: cross-reactivity test, yeast display flow cytometry
lysozyme = experiment: as above

binding (transferrin): no binding (tested: 1 µM)
binding (lysozyme): no binding (tested: 1 µM)
B1: P7 engineered rcSso7d binder (designed binder)
chain: ATVKFTYQGEEKQVDISKIKFVFRMGQAIEFAYDEGGGALGVGVVSEKDAPKELLQMLEKQ

binding (transferrin): no binding (tested: 1 µM)
binding (lysozyme): no binding (tested: 1 µM)
B2: P9 engineered rcSso7d binder (designed binder)
chain: ATVKFTYQGEEKQVDISKIKNVHRHGQYISFWYDEGGGAYGHGKVSEKDAPKELLQMLEKQ
